Consider eight molecules from publication PMC8511950.

Amino acid sequences for entries named in this document (tags omitted).
UniProt P16370: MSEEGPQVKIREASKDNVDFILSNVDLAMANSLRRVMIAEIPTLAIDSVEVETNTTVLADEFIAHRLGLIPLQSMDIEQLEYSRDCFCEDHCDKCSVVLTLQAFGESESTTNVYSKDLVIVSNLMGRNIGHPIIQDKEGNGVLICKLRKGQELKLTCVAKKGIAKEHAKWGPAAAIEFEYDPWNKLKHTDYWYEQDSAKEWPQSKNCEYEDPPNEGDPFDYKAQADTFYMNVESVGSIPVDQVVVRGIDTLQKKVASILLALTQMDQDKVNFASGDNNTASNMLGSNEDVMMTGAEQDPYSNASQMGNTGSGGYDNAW

These are yes or no findings as the source states them, for the method shown. In cells and extracts the contact can be indirect. Here binding means that the protein was enriched with, or labelled near, the bait; the list need not be complete.

To fix the notation:
B1: Cdc73 (protein, UniProt Q06697 1-393)
chain: MANSLDRLREHLKNGDKLVLKNNEGQSTDDITKATMVETLSSDGSTQDSFPLNEETEIEIDGSLVQLRIIVHCWMNKDSSAADYLADCQNKQLTNVSFLQRTDLINWLSGNTESSQYLKAPGQKGETSDKVDIENKTLAGELSTVKSTTSASLENDSEVSDPVVVETMKHERILVDHNSALRGAKPINFGYLIKDAELKLVQSIKGSLRGSKLPPGHKGAHGRISKTNGSSGGPRKDPIILIPSAASSILTVANIKQFLLESKYVNPRNLPSVPNGLVNIEKNFERISRPIRFIIVDNTRMFTKPEYWDRVVAIFTTGHTWQFNNYQWNSPQELFQRCKGYYFHFAGDSVPQHVQQWNVEKVELDKNKRFKDVEVVRYFWHSLEKELISRGYR
B2: Cet1 (enzyme, UniProt O13297 1-549)
chain: MSYTDNPPQTKRALSLDDLVNHDENEKVKLQKLSEAANGSRPFAENLESDINQTETGQAAPIDNYKESTGHGSHSQKPKSRKSSNDDEETDTDDEMGASGEINFDSEMDFDYDKQHRNLLSNGSPPMNDGSDANAKLEKPSDDSIHQNSKSDEEQRIPKQGNEGNIASNYITQVPLQKQKQTEKKIAGNAVGSVVKKEEEANAAVDNIFEEKATLQSKKNNIKRDLEVLNEISASSKPSKYRNVPIWAQKWKPTIKALQSINVKDLKIDPSFLNIIPDDDLTKSVQDWVYATIYSIAPELRSFIELEMKFGVIIDAKGPDRVNPPVSSQCVFTELDAHLTPNIDASLFKELSKYIRGISEVTENTGKFSIIESQTRDSVYRVGLSTQRPRFLRMSTDIKTGRVGQFIEKRHVAQLLLYSPKDSYDVKISLNLELPVPDNDPPEKYKSQSPISERTKDRVSYIHNDSCTRIDITKVENHNQNSKSRQSETTHEVELEINTPALLNAFDNITNDSKEYASLIRTFLNNGTIIRRKLSSLSYEIFEGSKKVM
B3: Tfc7 (protein, UniProt Q12415 1-435)
chain: MVVNTIYIARHGYRSNWLPEGPYPDPLTGIDSDVPLAEHGVQQAKELAHYLLSLDNQPEAAFASPFYRCLETVQPIAKLLEIPVYLERGIGEWYRPDRKPVIPVPAGYEILSKFFPGVISQEWDSTLTPNEKGETEQEMYMRFKKFWPLFIERVEKEYPNVECILLVTHAASKIALGMSLLGYDNPRMSLNENGDKIRSGSCSLDKYEILKKSYDTIDETDDQTSFTYIPFSDRKWVLTMNGNTEFLSSGEEMNWNFDCVAEAGSDADIKKRQMTKKTSSPIPEADDQTEVETVYISVDIPSGNYKERTEIAKSAILQYSGLETDAPLFRIGNRLYEGSWERLVGTELAFPNAAHVHKKTAGLLSPTEENETTNAGQSKGSSTANDPNIQIQEEDVGLPDSTNTSRDHTGDKEEVQSEKIYRIKERIVLSNVRPM
B4: Trm2 (protein, UniProt P33753 1-639)
chain: MYEQFEFSFFFFENSDNKVKYKAHLISSIKRWSIITCMRCFWTVQKSIFKARFFACRNFVKKHNYKLISTMTGSTEMVPPTMKHTVDNKRLSSPLTDSGNRRTKKPKLRKYKAKKVETTSPMGVLEFEVNDLLKSQNLSREQVLNDVTSILNDKSSTDGPIVLQYHREVKNVKVLEITSNGNGLALIDNPVETEKKQVVIIPFGLPGDVVNIKVFKTHPYYVESDLLDVVEKSPMRRDDLIRDKYFGKSSGSQLEFLTYDDQLELKRKTIMNAYKFFAPRLVAEKLLPPFDTTVASPLQFGYRTKITPHFDMPKRKQKELSVRPPLGFGQKGRPQWRKDTLDIGGHGSILDIDECVLATEVLNKGLTNERRKFEQEFKNYKKGATILLRENTTILDPSKPTLEQLTEEASRDENGDISYVEVEDKKNNVRLAKTCVTNPRQIVTEYVDGYTFNFSAGEFFQNNNSILPIVTKYVRDNLQAPAKGDDNKTKFLVDAYCGSGLFSICSSKGVDKVIGVEISADSVSFAEKNAKANGVENCRFIVGKAEKLFESIDTPSENTSVILDPPRKGCDELFLKQLAAYNPAKIIYISCNVHSQARDVEYFLKETENGSAHQIESIRGFDFFPQTHHVESVCIMKRI
B5: Ctr9 (protein, UniProt P89105 1-1077)
chain: MTNAMKVEGYPSMEWPTSLDIPLKASEELVGIDLETDLPDDPTDLKTLLVEENSEKEHWLTIALAYCNHGKTNEGIKLIEMALDVFQNSERASLHTFLTWAHLNLAKGQSLSVETKEHELTQAELNLKDAIGFDPTWIGNMLATVELYYQRGHYDKALETSDLFVKSIHAEDHRSGRQSKPNCLFLLLRAKLLYQKKNYMASLKIFQELLVINPVLQPDPRIGIGLCFWQLKDSKMAIKSWQRALQLNPKNTSASILVLLGEFRESFTNSTNDKTFKEAFTKALSDLNNIFSENQHNPVLLTLLQTYYYFKGDYQTVLDIYHHRILKMSPMIAKIVLSESSFWCGRAHYALGDYRKSFIMFQESLKKNEDNLLAKLGLGQTQIKNNLLEESIITFENLYKTNESLQELNYILGMLYAGKAFDAKTAKNTSAKEQSNLNEKALKYLERYLKLTLATKNQLVISRAYLVISQLYELQNQYKTSLDYLSKALEEMEFIKKEIPLEVLNNLACYHFINGDFIKADDLFKQAKAKVSDKDESVNITLEYNIARTNEKNDCEKSESIYSQVTSLHPAYIAARIRNLYLKFAQSKIEDSDMSTEMNKLLDLNKSDLEIRSFYGWYLKNSKERKNNEKSTTHNKETLVKYNSHDAYALISLANLYVTIARDGKKSRNPKEQEKSKHSYLKAIQLYQKVLQVDPFNIFAAQGLAIIFAESKRLGPALEILRKVRDSLDNEDVQLNLAHCYLEMREYGKAIENYELVLKKFDNEKTRPHILNLLGRAWYARAIKERSVNFYQKALENAKTALDLFVKESSKSKFIHSVKFNIALLHFQIAETLRRSNPKFRTVQQIKDSLEGLKEGLELFRELNDLKEFNMIPKEELEQRIQLGETTMKSALERSLNEQEEFEKEQSAKIDEARKILEENELKEQGWMKQEEEARRLKLEKQAEEYRKLQDEAQKLIQEREAMAISEHNVKDDSDLSDKDNEYDEEKPRQKRKRSTKTKNSGESKRRKAAKKTLSDSDEDDDDVVKKPSHNKGKKSQLSNEFIEDSDEEEAQMSGSEQNKNDDNDENNDNDDNDGLF
B6: Gga1 (protein, UniProt Q06336 1-557)
chain: MPQRIELTSEPVRKPRSTESSLLRKIQRACRSTLPEPDLGLNLDVADYINSKQGATPREAVLAIEKLVNNGDTQAAVFALSLLDVLVKNCGYSIHLQISRKEFLNDLVKRFPEQPPLRYSKVQQMILEAIEEWYQTICKHASYKDDLQYINDMHKLLKYKGYTFPKVGSENLAVLRPNDQLRTPSELQEEQERAQAAKLEELLRSGKPDDLKEANKLMKIMAGFKDDTKVAVKQAINNELNKLKRKADLFNEMLTSADEPDLENEAIQELYGDLKSAQPKFKKLIEEERDDDALVSNLSKFNDLVIQLLKRYKSIKGMKEEELNVPDTNEPAKELNLIDFDDDTTANTPSVTSPSKSLQPFDDLLGDFNKVSLSSPKSPQENDTVVDILGDAHSKSSGIDLLDFDSQPGESKTALSAYSNSIVLPNGLLNSSSNSKEITAQSQRHILNQSDHLRIDYELTRESMTKLRLVIFYSNISSDPITNFALLVASPKGTTLSLQPQSGNMLQSNSRDGIKQIASVEGISVNLGKPIKLKWKANYCTKGDSKEESGTTSLPTI
B7: Sis1 (protein, UniProt P25294 1-352)
chain: MVKETKLYDLLGVSPSANEQELKKGYRKAALKYHPDKPTGDTEKFKEISEAFEILNDPQKREIYDQYGLEAARSGGPSFGPGGPGGAGGAGGFPGGAGGFSGGHAFSNEDAFNIFSQFFGGSSPFGGADDSGFSFSSYPSGGGAGMGGMPGGMGGMHGGMGGMPGGFRSASSSPTYPEEETVQVNLPVSLEDLFVGKKKSFKIGRKGPHGASEKTQIDIQLKPGWKAGTKITYKNQGDYNPQTGRRKTLQFVIQEKSHPNFKRDGDDLIYTLPLSFKESLLGFSKTIQTIDGRTLPLSRVQPVQPSQTSTYPGQGMPTPKNPSQRGNLIVKYKVDYPISLNDAQKRAIDENF
B8: Rex3 (protein, UniProt Q12090 1-404)
chain: MGSLLRPVDLVNQPLGFQERYKILQKLFKQLQKAYAHTKGTNIDLERLATRLEVHVAKNSLSGQSYKFNMSILLRDVLKYKGDLSKIKINGRPLKGAKPHLSSIGNANSITTKSKAMEALKALILDSKVLEKNGYIVKEMQNKTNDDNSTQLYAPCLRCSSNFKKTDIMEKTLCRYHPLKRIYNRDTKNHQYPCCGETTDSVSFLRLGCKTFFHHVFRGESYDELCKISKFSSTDDIDGVENVLSLDCEMAFTSLGYEMIRLTIVDFFTGKTLFDHVIQPIGDIVDLNSDFSGVHEIDRTNCPTYKEALDVFLSENLINKNSILIGHGLENDLNVMRLFHNKVIDTAILYSRTKFKVSLKNLAFEVLSRKIQNGEHDSSQDAIATMDVVKVKIGISPSQNKWEK

The assay deals with Rpb3 with C-terminal BioTAP tag (S. cerevisiae) (UniProt P16370). Put plainly: affinity purification with mass spectrometry; BioTAP-XL two-step purification of Rpb3-BioTAP (IgG beads, then streptavidin agarose) from 1% formaldehyde-cross-linked wildtype and spt6-1004 cells shifted to 37 °C for 80 min; on-bead trypsin digestion, TMT labelling, MS3 quantification; untagged wildtype and spt6-1004 cells as controls; FDR cutoff 0.05.
B1: the binding entry is “binds”. B2: the binding entry was “binds”.

Take B3: the binding result is on record as “binds”. Consider B4, for which the binding entry is reported as “binds”. With B5 the entry was “binds”; with B6, “binds”; with B7, “binds”.

B8: the binding result is “binds”.
